Test results as given in PubChem BioAssay AID1362 (SRMLSC, 2008).
The other results are listed elsewhere or left out. Some tests of the compounds listed are not included; inactive here does not mean inactive elsewhere.

Experiment: growth inhibition of WT strain, primary screen, mitochondrial fusion inhibitor project, WT and mutant strains, chemical genetic (AID 1362); further: tested in S. cerevisiae
Conditions: mitochondrial fusion phenotypic screen, at 10 µM

SMILES	inhibition
CC(C)N1C(=O)CC2(CCN(CCOC(=O)C(O)(c3ccccc3)c3ccccc3)CC2)C1=O	-0.57%
O=C(NCC1(N2CCCCC2)CCCCC1)c1cc([N+](=O)[O-])ccc1Cl	-1.29%
C=CCN1CCN(CCOC(=O)C(O)(c2ccccc2)c2ccccc2)CC1	-10.7%
CCN1CCCC(OC(=O)C2(O)c3ccccc3C=Cc3ccccc32)C1 (centres undefined)	-6.87%
CN(C)C1CCCC1OC(=O)C(O)(c1ccccc1)c1ccccc1 (centres undefined)	1.8%
Cc1ccccc1C(=O)NCC1(N2CCCCC2)CCCCC1	9.83%
COc1cccc(C(=O)NCC2(N3CCCCC3)CCCCC2)c1	19.2%
CN(C)c1cccc(C(=O)NCC2(N(C)C)CCCCC2)c1	-0.18%
O=C(OC1CN2CCC1CC2)C(CO)(c1ccccc1)c1ccccc1 (centres undefined)	2.07%
